Laboratory results: article PMC11295332
No constants are given. Whether binding was seen depends on the method and setting. Binding seen in cells or lysates may run through a third protein. Some binding calls cover weakened binding; strength is not graded here. Sequences can lack the tags named with a protein.

Biological target: T1, Interferon gamma receptor 1 (IFNGR1), myc-tagged (human) (UniProt P15260)
T1 sequence: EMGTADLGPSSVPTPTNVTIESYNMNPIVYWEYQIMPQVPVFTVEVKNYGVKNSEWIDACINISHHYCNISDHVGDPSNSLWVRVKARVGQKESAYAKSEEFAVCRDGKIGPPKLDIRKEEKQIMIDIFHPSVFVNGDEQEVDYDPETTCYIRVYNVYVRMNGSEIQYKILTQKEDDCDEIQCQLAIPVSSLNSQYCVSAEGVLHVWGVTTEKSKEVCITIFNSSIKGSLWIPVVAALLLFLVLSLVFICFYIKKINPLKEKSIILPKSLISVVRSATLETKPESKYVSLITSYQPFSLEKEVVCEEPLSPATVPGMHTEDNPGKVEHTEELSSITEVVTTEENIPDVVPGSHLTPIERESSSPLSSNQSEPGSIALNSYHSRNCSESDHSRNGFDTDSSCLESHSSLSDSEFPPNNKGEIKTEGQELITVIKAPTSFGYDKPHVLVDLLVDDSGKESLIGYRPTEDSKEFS
Assay: co-IP; Flag-tagged TPST2 and/or myc-tagged IFNGR1 overexpressed in MDA-MB-231 cells; lysis buffer 50 mM Tris-Cl pH 8.0, 150 mM NaCl, 1% NP-40; anti-myc-tag or anti-flag antibody on protein G magnetic beads, 4 °C, 16 h; reciprocal immunoprecipitation and western blotting

binding: binds
B1: Tyrosylprotein sulfotransferase-2 (TPST2), flag-tagged (enzyme, UniProt O60704 1-377)
chain: MRLSVRRVLLAAGCALVLVLAVQLGQQVLECRAVLAGLRSPRGAMRPEQEELVMVGTNHVEYRYGKAMPLIFVGGVPRSGTTLMRAMLDAHPEVRCGEETRIIPRVLAMRQAWSKSGREKLRLDEAGVTDEVLDAAMQAFILEVIAKHGEPARVLCNKDPFTLKSSVYLSRLFPNSKFLLMVRDGRASVHSMITRKVTIAGFDLSSYRDCLTKWNKAIEVMYAQCMEVGKEKCLPVYYEQLVLHPRRSLKLILDFLGIAWSDAVLHHEDLIGKPGGVSLSKIERSTDQVIKPVNLEALSKWTGHIPGDVVRDMAQIAPMLAQLGYDPYANPPNYGNPDPFVINNTQRVLKGDYKTPANLKGYFQVNQNSTSSHLGSS
